Results: patent publication US20130165455A1, “TLR AGONISTS” (The Regents of The University of California, priority 2005, published 2013)
Some results were stated once for a whole list of compounds, not compound by compound. For at least one compound, name, drawing or mass did not settle the structure.

System: C57BL/6 mice
Assay: Serum cytokine levels in C57BL/6 mice after i.v. injection (Luminex)
Type: in vivo
Conditions: 380 nmole vs 500 μg UC-1V150/MSA (3.8 nmole UC-1V150), serum cytokines after 2 h, FIG. 7
Experimental: FIGS. 5A, 5B, 5C, and 5D illustrate the increased potency and duration of effect of UC-1V150/MSA. C57BL/6 mice were injected (i.v.) with (A) 0.1 micromole of SM-360320, a TLR7 ligand, or (B) equivalent amount of a TLR7 agonist UC-1V150 (aldehyde-modified SM-360320) or UC-1V150/MSA to 500 μg MSA per mouse. Serum samples were collected at the indicated time points and cytokine levels were analyzed by Luminex. MSA=mouse serum albumin. The effect from the original TLR7 ligand, SM-360320, lasted for only 2 hours whereas UC-1V150/MSA has extended the effect to at least 6 hours.
FIGS. 7A and 7B illustrates an increased potency of UC-1V150/MSA. C57BL/6 mice were i.v. injected with 380 nmole of SM-360320 or UC-1V150, or 500 μg of UC-1V150/MSA (equivalent to 3.8 nmole UC-1V150) per mouse. Serum samples were collected after 2 h and cytokine levels were analyzed by Luminex. To achieve the similar effect, at least 100-fold higher concentration of either UC-1V150 or SM-360320 was required as compared to that of UC-1V150/MSA.

Compound | higher concentration required to achieve the similar effect as compared to that of UC-1V150/MSA
COCCOc1nc(N)c2nc(O)n(Cc3ccc(C=O)cc3)c2n1 [UC-1V150, 4-[6-amino-8-hydroxy-2-(2-methoxyethoxy)purin-9-ylmethyl]benzaldehyde] | at least 100 fold
COCCOc1nc(N)c2[nH]c(=O)n(Cc3ccccc3)c2n1 [SM-360320] | at least 100 fold
